The text below walks through data of publication PMC5398536.

Common to all, as to assay: split reporter; split-YFP BiFC (YFPn aa 1-174, YFPc aa 175-239) in transiently co-transfected HEK-293 cells; confocal imaging with ER-Tracker or MitoTracker
For experiment [1], the target named is T1, mitoNEET (mNT), full length, fused to a split-YFP fragment (human), Q9NZ45.
T1 chain: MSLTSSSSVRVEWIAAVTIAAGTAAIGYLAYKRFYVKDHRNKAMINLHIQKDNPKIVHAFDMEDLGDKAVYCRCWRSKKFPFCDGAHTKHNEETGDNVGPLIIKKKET
The following applies: remark: other sources report otherwise.

Experiment [2] concerns the target T2, nutrient-deprivation autophagy factor-1 (NAF-1), full length, fused to a split-YFP fragment (human), Q8N5K1.
T2 chain: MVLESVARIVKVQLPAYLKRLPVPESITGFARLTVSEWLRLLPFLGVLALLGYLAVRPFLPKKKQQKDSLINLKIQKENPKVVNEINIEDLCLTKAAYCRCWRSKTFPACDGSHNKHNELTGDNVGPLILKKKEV
Particulars: remark: other sources report otherwise.

Experiment [3] addresses T3, mitoNEET (mNT), full length, fused to a split-YFP fragment (human) (UniProt Q9NZ45).
T3 sequence: T1 chain

No constants are given. Whether binding was seen depends on the method and setting. In cells and extracts the contact can be indirect. Some binding calls cover weakened binding; strength is not graded here. Where a sequence is shown, tags or fusion partners need not be part of it.

B1: mitoNEET (mNT), full length, fused to a split-YFP fragment, Q9NZ45 1-108 (protein)
chain: T1 chain
With B1, the binding entry in experiment [1] is given as “binds”.

B2: nutrient-deprivation autophagy factor-1 (NAF-1), full length, fused to a split-YFP fragment, Q8N5K1 1-135 (protein)
chain: T2 chain
As for B2, in experiment [2], the binding entry was “binds”.

B3: nutrient-deprivation autophagy factor-1 (NAF-1), full length, fused to a split-YFP fragment (protein, UniProt Q8N5K1 1-135)
chain: T2 chain
Consider B3, for which the binding entry in experiment [3] was “binds”.

B4: soluble NAF-1 lacking the membrane-anchoring domain, fused to YFPc (domain or fragment, UniProt Q8N5K1 56-135)
chain: VRPFLPKKKQQKDSLINLKIQKENPKVVNEINIEDLCLTKAAYCRCWRSKTFPACDGSHNKHNELTGDNVGPLILKKKEV
As for B4, in experiment [3], the binding entry is “no binding”.
